PubChem BioAssay AID1259308 – NCATS – 2017
Shown is an unselected part of about 59,000 deposited reagents. Over the whole deposit, about 1,510 (2.6%) got an active call. 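Calls use total luciferase alone and ignore viability, so some active siRNAs may act by altering cell number.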 Reagents against one gene are numbered here. Not all columns of the deposit are shown.

- Aim: 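Genes whose loss raises luciferase production in HEK293 cells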 (primary screen)
- Cells: human HEK293 embryonic kidney cells stably expressing firefly luciferase (HEK-CMV-Luc2-Hygro)
- Reagents: single siRNA against human genes, 0.8 pmol siRNA per well
- Time to read-out: 72 h
- Detection: 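Reporter luminescence and viable-cell signal on separate replicate plates, given as percent of non-targeting control and median/MAD z-scores, plus per-cell luciferase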
- Direction: total luciferase, z-score and total luciferase, % of control: higher = more reporter protein produced; luciferase per cell, z-score: higher = more reporter output per viable cell
- Hit rule: 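Active when the median/MAD z-score for overall luciferase is greater than 3; a gene was taken forward for validation with new siRNAs if at least two of its three siRNAs passed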
- Calls: active = raised luciferase; inactive = no rise

Gene	siRNA no.	total luciferase, z-score	total luciferase, % of control	luciferase per cell, z-score	Outcome
SPATA16 (spermatogenesis associated 16)	1	0.285	87.6	0.58	inactive
SPATA16 (spermatogenesis associated 16)	2	-0.521	71.5	-0.502	inactive
SPATA16 (spermatogenesis associated 16)	3	0.0179	82.2	-0.418	inactive
CA13 (carbonic anhydrase 13)	1	0.429	90.4	0.802	inactive
CA13 (carbonic anhydrase 13)	2	0.772	97.2	0.581	inactive
CA13 (carbonic anhydrase 13)	3	-0.998	62	-1.12	inactive
SUN5 (Sad1 and UNC84 domain containing 5)	1	-1.52	51.7	-2.43	inactive
SUN5 (Sad1 and UNC84 domain containing 5)	2	1.61	114	1.52	inactive
SUN5 (Sad1 and UNC84 domain containing 5)	3	0.908	99.9	0.619	inactive
LRATD1 (LRAT domain containing 1)	1	0.382	89.5	0.0621	inactive
LRATD1 (LRAT domain containing 1)	2	-0.0466	81	0.623	inactive
LRATD1 (LRAT domain containing 1)	3	1.19	106	0.696	inactive
CHST15 (carbohydrate sulfotransferase 15)	1	-0.292	76.1	-0.171	inactive
CHST15 (carbohydrate sulfotransferase 15)	2	-1.38	54.5	-0.582	inactive
CHST15 (carbohydrate sulfotransferase 15)	3	0.105	84	-0.226	inactive
CD209 (CD209 molecule)	1	-1.35	55.1	0.91	inactive
CD209 (CD209 molecule)	2	-2.1	40.2	-2.12	inactive
CD209 (CD209 molecule)	3	-1.23	57.5	-0.496	inactive
GPR87 (G protein-coupled receptor 87)	1	-0.0533	80.8	-0.5	inactive
GPR87 (G protein-coupled receptor 87)	2	0.0865	83.6	0.572	inactive
GPR87 (G protein-coupled receptor 87)	3	-0.436	73.2	-1.02	inactive

Already shown: 2 of the entries above.
Gene	siRNA no.	total luciferase, z-score	total luciferase, % of control	luciferase per cell, z-score	Outcome
SUN5 (Sad1 and UNC84 domain containing 5)	2	1.61	114	1.52	inactive
SUN5 (Sad1 and UNC84 domain containing 5)	3	0.908	99.9	0.619	inactive

The listing continues:
Gene	siRNA no.	total luciferase, z-score	total luciferase, % of control	luciferase per cell, z-score	Outcome
SNX7 (sorting nexin 7)	1	1.28	107	1.06	inactive
SNX7 (sorting nexin 7)	2	-0.0442	81	-0.845	inactive
SNX7 (sorting nexin 7)	3	-0.426	73.4	-0.942	inactive
CHMP3 (charged multivesicular body protein 3)	1	1.31	108	0.52	inactive
CHMP3 (charged multivesicular body protein 3)	2	-0.551	70.9	-0.592	inactive
CHMP3 (charged multivesicular body protein 3)	3	-0.719	67.6	-0.516	inactive
HMGB2 (high mobility group box 2)	1	1.14	105	2.51	inactive
HMGB2 (high mobility group box 2)	2	-2.4	34.2	-2.4	inactive
HMGB2 (high mobility group box 2)	3	-0.737	67.2	-0.954	inactive
TCTN3 (tectonic family member 3)	1	0.277	87.4	0.73	inactive
TCTN3 (tectonic family member 3)	2	0.638	94.6	0.0675	inactive
TCTN3 (tectonic family member 3)	3	0.934	100	0.874	inactive
PIP4K2B (phosphatidylinositol-5-phosphate 4-kinase type 2 beta)	1	-0.518	71.6	-0.195	inactive
PIP4K2B (phosphatidylinositol-5-phosphate 4-kinase type 2 beta)	2	-0.112	79.7	-0.761	inactive
PIP4K2B (phosphatidylinositol-5-phosphate 4-kinase type 2 beta)	3	0.482	91.5	0.943	inactive
FAM53A (family with sequence similarity 53 member A)	1	0.0357	82.6	-0.223	inactive
FAM53A (family with sequence similarity 53 member A)	2	0.489	91.6	-0.183	inactive
FAM53A (family with sequence similarity 53 member A)	3	0.945	101	1.38	inactive
